# From the supplement of paper PMC8256030
# Values joined by “and” are separate entries in the source; they are usually repeats but may differ in a detail not shown here. Equal entries are not always repeated. Structures can show the parent of a compound that is named as a salt. The list shows a part of the results. Single values are uncertain here, since repeats match poorly.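 HEK293T cells were given each compound shortly before transfection with a reporter in which red mCherry is followed by the SARS-CoV-2 frameshift element and then GFP in the −1 frame, so GFP appears only after frameshifting.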
# Test system: HEK293T
# Test: percent viability (nuclei count) relative to control; higher = more viable cells
# Settings: 10 µM; 24 h
row,SMILES,percent viability
1,CCNC(=O)[C@@H]1CCCN1C(=O)[C@H](CCCNC(=N)N)NC(=O)[C@H](CC(C)C)NC(=O)[C@@H](Cc1cn(Cc2ccccc2)cn1)NC(=O)[C@H](Cc1ccc(O)cc1)NC(=O)[C@H](CO)NC(=O)[C@H](Cc1c[nH]c2ccccc12)NC(=O)[C@H](Cc1cnc[nH]1)NC(=O)[C@@H]1CCC(=O)N1 [histrelin],130%
2,CC(C)Nc1nc2cc(Cl)c(Cl)cc2n1[C@H]1O[C@@H](CO)[C@H](O)[C@@H]1O [maribavir],41.6%
3,CC(=O)N1CCC(c2ccc(C(=O)N=C(N)N)cc2C(F)(F)F)CC1,336%
4,C=C1c2cccc(O)c2C(O)=C2C(=O)[C@]3(O)C(O)=C(C(N)=O)C(=O)[C@@H](N(C)C)[C@@H]3[C@@H](O)[C@H]12 [metacycline],124%
5,CCN(CC)C(=O)[C@@]1(c2ccccc2)C[C@H]1CN [Levomilnacipran],318%
6,Nc1ccc(S(=O)(=O)Nc2ncccn2)cc1 [sulfadiazine sodium],185%
7,CC(C)[C@@H](C)/C=C/[C@@H](C)[C@H]1CC[C@H]2/C(=C/C=C3\C[C@@H](O)CC[C@@H]3C)CCC[C@]12C [dihydrotachysterol],136%
8,NC(=O)c1[nH]nc([C@@H]2O[C@H](CO)[C@@H](O)[C@H]2O)c1O [pirazofurin],120%
9,CC(C1=C(CCN(C)C)Cc2ccccc21)c1ccccn1 (stereo unspecified) [dimetindene],129%
10,C[C@@H]1C[C@H]2[C@@H]3C[C@H](F)C4=CC(=O)C=C[C@]4(C)[C@@]3(F)[C@@H](O)C[C@]2(C)[C@@]1(O)C(=O)CO [flumetasone],103% and 306%
11,CC(=O)OCC(=O)[C@@]1(O)CC[C@H]2[C@@H]3CCC4=CC(=O)C=C[C@]4(C)[C@@]3(Cl)[C@@H](Cl)C[C@@]21C,370%
12,CN/C(=N\c1ccc(C2=NNC(=O)CC2C)cc1)NC#N (stereo unspecified) [siguazodan],105%
13,O=S(O)CNc1ccc(S(=O)(=O)c2ccc(NCS(=O)O)cc2)cc1 [aldesulfone],347%
14,CCCCCCCCCCCCCCCCOP(=O)([O-])OCC[N+](C)(C)C [miltefosine],250% and 324%
15,COc1cc2ncnc(Nc3ccc(F)c(Cl)c3)c2cc1OCCCN1CCOCC1 [gefitinib],221% and 292%
16,Cc1c(O)cccc1C(=O)N[C@@H](CSc1ccccc1)[C@H](O)CN1C[C@H]2CCCC[C@H]2C[C@H]1C(=O)NC(C)(C)C [nelfinavir],172%
17,CC1(C)O[C@@H]2C[C@H]3[C@@H]4C[C@H](F)C5=CC(=O)CC[C@]5(C)[C@H]4[C@@H](O)C[C@]3(C)[C@]2(C(=O)CO)O1 [fludroxycortide],293% and 221%
18,CC(=O)NCC(=O)O [aceturate],157%

row,SMILES,percent viability
1,CCCCCN(CCCOC)C(=O)C(CCC(=O)O)NC(=O)c1ccc(Cl)c(Cl)c1 (stereo unspecified) [loxiglumide],139%
2,O=C(O)c1cccnc1Nc1cccc(C(F)(F)F)c1 [niflumic acid],354% and 247%
3,CCCCc1nc(Cl)c(CO)n1Cc1ccc(-c2ccccc2-c2nnn[nH]2)cc1 [Losartan],334%
4,Cn1cc(C(=O)[C@@H]2CCc3[nH]cnc3C2)c2ccccc21 [ramosetron],120%
5,CC(C)[N+]1(C)[C@@H]2CC[C@H]1CC(OC(=O)C(CO)c1ccccc1)C2 (stereo partly specified) [Ipratropium·Br],264%
6,Clc1ccccc1CN1CCc2sccc2C1,321%
7,C=CCc1ccccc1OCC(O)CNC(C)C (stereo unspecified) [alprenolol],178%
8,CC(S)C(=O)NCC(=O)O (stereo unspecified) [tiopronin],42.1%
9,O=C(O)c1ccc[n+]([O-])c1,353%
10,CC(C(=O)O)c1ccc(-c2ccccc2)c(F)c1 (stereo unspecified) [flurbiprofen],302% and 144%
11,CO/N=C1\CN(c2nc3c(cc2F)c(=O)c(C(=O)O)cn3C2CC2)CC1CN (stereo unspecified) [gemifloxacin],295% and 202%
12,Cc1cccc(C)c1NC(=O)C1CCCCN1C (stereo unspecified) [mepivacaine],192%
13,CC(=O)N[C@@H](CSC(C)=O)C(=O)O [dacisteine],57.9%
14,N[C@@H](CSCC(=O)O)C(=O)O [Carbocisteine],270%
15,CC(C)NC(=N)NC(=N)Nc1ccc(Cl)cc1 [proguanil],421%
16,CNCC(O)c1ccc(O)c(O)c1 [L-(+)-Epinephrine tartrate],269%
17,CCCCCC(C)N (stereo unspecified) [tuaminoheptane],182%
18,N#C/C(=C1/SCC(c2ccccc2Cl)S1)n1ccnc1 (stereo unspecified) [lanoconazole],44.1%

# 2 compounds drawn at random from the list so far, as already listed:
row,SMILES,percent viability
14,CCCCCCCCCCCCCCCCOP(=O)([O-])OCC[N+](C)(C)C [miltefosine],250% and 324%
2,O=C(O)c1cccnc1Nc1cccc(C(F)(F)F)c1 [niflumic acid],354% and 247%
